From PubChem BioAssay AID588590 (National Center for Advancing Translational Sciences (NCATS), 2011)
“And” between values parts separate entries of the source, which are not always exact repeats. Equal values may be shown once. Screen size: about 390,000 compounds; about 4,000 (1%) were called active. Inconclusive means that the source gave no clear call. Such entries were picked first, then a sample of the others. Calls follow the shape of the dose curve; as a rule, active = well fitted inhibition curve with a large enough effect; inconclusive = small, poorly fitted or top-dose-only effect, or another doubt; inactive = no such curve, though single readings can be large or run the other way. Potencies beside an inconclusive call are fits to weak or partial responses and may not hold up.
Potency is read from the fitted curve at half-maximal effect.

By UniProt entry, the sequences of proteins in these tests, tags left out. Where a name states a change or a piece, a line headed by the entry shows the natural chain unless it says otherwise.
UniProt Q9UNA4: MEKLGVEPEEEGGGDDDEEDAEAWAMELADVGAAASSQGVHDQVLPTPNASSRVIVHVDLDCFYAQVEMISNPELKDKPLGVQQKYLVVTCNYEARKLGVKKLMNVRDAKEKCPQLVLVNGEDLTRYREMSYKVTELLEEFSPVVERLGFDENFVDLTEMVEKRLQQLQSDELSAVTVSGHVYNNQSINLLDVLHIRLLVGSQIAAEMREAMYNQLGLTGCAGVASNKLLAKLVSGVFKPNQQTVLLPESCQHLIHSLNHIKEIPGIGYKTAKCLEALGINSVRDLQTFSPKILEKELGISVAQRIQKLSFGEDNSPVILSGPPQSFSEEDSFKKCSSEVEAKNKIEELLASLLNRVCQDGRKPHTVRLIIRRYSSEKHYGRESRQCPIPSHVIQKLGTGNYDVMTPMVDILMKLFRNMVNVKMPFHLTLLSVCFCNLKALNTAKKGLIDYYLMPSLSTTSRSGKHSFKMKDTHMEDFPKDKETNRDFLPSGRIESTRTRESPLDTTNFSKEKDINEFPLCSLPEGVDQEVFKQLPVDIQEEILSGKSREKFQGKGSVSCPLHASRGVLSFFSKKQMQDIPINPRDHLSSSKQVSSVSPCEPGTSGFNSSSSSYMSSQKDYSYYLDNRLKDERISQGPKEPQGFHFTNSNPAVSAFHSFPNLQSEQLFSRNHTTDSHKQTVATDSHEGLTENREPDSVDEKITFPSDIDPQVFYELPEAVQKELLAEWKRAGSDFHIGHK

The compounds below were run against DNA polymerase iota (Homo sapiens) (UniProt Q9UNA4) (assay: qHTS for Inhibitors of Polymerase Iota). Conditions: Pol iota fluorescent replication assay, 10 min; series mostly up to 115 µM.
In short: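 Pol iota at 10 nM preincubated 15 min with compounds at room temperature; reaction started with fluorescent substrate, 50 nM final. Fluorescence read kinetically at 0 and 10 min; buffer-only wells as negative control.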
For `COc1ccc(C(=O)C[N+]2(C)CCOCC2)cc1`, the Potency was “inactive and inconclusive: 28.2 µM [inhibitor, partial curve, poor fit]”. With `O=C(c1ccco1)N1N=C(c2ccc(Cl)cc2)CC1c1ccco1` (centres undefined) the Potency was inconclusive: 20 µM [inhibitor, full curve, poor fit]. In the case of `COc1ccc(N(C(=O)/C=C\C(=O)Nc2ccc(Cl)cc2)C(C(=O)NCc2ccco2)c2ccc(C)cc2)cc1` (centres undefined), the Potency is reported as inconclusive: 3.16 µM [inhibitor, full curve, poor fit]. For `CCOC(=O)N1CCC(=NNC(=O)NC2CCCCC2)CC1`, the Potency was “inactive”. `Nc1cc(-c2ccc(Cl)cc2)nn1S(=O)(=O)c1cccc2nsnc12` was tested, and the Potency was inconclusive: 39.8 µM [inhibitor, partial curve, poor fit]. For `Cc1c(C(=O)OCC(=O)NCc2ccco2)cccc1[N+](=O)[O-]`, the Potency was active: 56.2 µM. For `COc1ccc(C(=O)OCc2cc(=O)n3ccsc3n2)cc1F`, the Potency was inconclusive: 50.1 µM [inhibitor, partial curve, poor fit]. `CCn1nc(C(=O)OC(C(=O)c2c[nH]c3ccccc23)c2ccccc2)c2ccccc2c1=O` (centres undefined) was tested, and the Potency was “inactive”. With `Oc1ccc(N=Cc2ccc(-c3cccs3)s2)cc1` the Potency was inconclusive: 3.16 µM [inhibitor, full curve, poor fit]. `Cc1c(Cl)cccc1NS(=O)(=O)c1ccc2[nH]cc(C(=O)NC3CCCC3)c(=O)c2c1` was tested, and the Potency was active: 79.4 µM. With `CCCc1cc2c(=O)c(-c3nc4ccccc4s3)c(COCC(=O)O)oc2cc1O` the Potency was inconclusive: 20 µM [inhibitor, full curve]. For `COc1ccc(C(=O)Nc2c(N)nc(SCC(=O)Nc3ccc(NC(C)=O)cc3)[nH]c2=O)cc1OC`, the Potency was active: 79.4 µM. In the case of `CCn1cc(C(=O)NCCc2ccc(C)cc2)c(=O)c2cc(S(=O)(=O)N(C)C)ccc21`, the Potency is reported as inconclusive: 25.1 µM [inhibitor, partial curve, poor fit] and inconclusive: 44.7 µM [inhibitor, single point]. With `COC(=O)c1ccc(/C=C/C(=O)OCC(=O)Nc2sccc2C(N)=O)cc1` the Potency was inconclusive: 50.1 µM [inhibitor, partial curve, poor fit]. For `CC(=O)c1ccc(C(=O)N2CCC(n3nccc3NC(=O)C3CC3)CC2)cc1`, the Potency was “inactive”. `Oc1ccccc1C1Nc2cccc3cccc(c23)N1` was tested, and the Potency was inconclusive: 2.82 µM [inhibitor, full curve, poor fit]. For `COc1ccc(NCc2nnc(SCC(=O)NCc3ccco3)n2-c2ccccc2OC)cc1`, the Potency was inconclusive: 4.47 µM [inhibitor, full curve, poor fit]. For `COc1cccc(CNC(=O)CCn2c(=O)c3cccn3c3ccc(F)cc32)c1OC`, the Potency was “inactive”. For `O=C(NCc1ccco1)c1cc2ccccc2c(=O)o1`, the Potency was inconclusive: 25.1 µM [inhibitor, full curve, poor fit]. In the case of `CCn1cc(C(=O)N2CCN(c3cccc(C)c3C)CC2)c(=O)c2ccc(C)nc21`, the Potency is reported as inconclusive: 100 µM [inhibitor, partial curve, poor fit]. For `COc1ccc(Nc2nc(NC(C)(C)C)nc(N3CCOCC3)n2)c(OC)c1`, the Potency was inconclusive: 56.2 µM [inhibitor, single point]. `COc1ccc(CCNC(=O)Cn2cc(C(=O)c3ccccc3)c(=O)c3ccc(C)nc32)cc1OC` was tested, and the Potency was “inactive”. In the case of `Cc1cc(C(=O)COC(=O)C(C)NC(N)=O)c(C)n1Cc1ccco1` (centres undefined), the Potency is reported as inconclusive: 12.6 µM [inhibitor, single point]. In the case of `COC/C=C/C1=CC2=CC(=O)C(C)(OC(=O)c3cnc4ccccc4n3)C(=O)C2=CN1CCOC` (centres undefined), the Potency is reported as inconclusive: 22.4 µM [inhibitor, partial curve]. With `Cc1ccc(NC(=O)CCn2c(=O)c3cccn3c3ccccc32)c(Cl)c1` the Potency was “inactive”. For `O=C1C=C(O)c2cccc3cccc1c23`, the Potency was “inactive”. With `CCOC(=O)C1CCC(CN(Cc2ccccc2)S(=O)(=O)c2ccc(Cl)cc2)CC1` (centres undefined) the Potency was “inactive”. `CC1=NN(C(C)C)C(=O)C1` was tested, and the Potency was inconclusive: 3.16 µM [inhibitor, full curve, poor fit]. In the case of `Cc1ccc(C(=O)NCCN2C3=NC[C@H](C)N3C[C@H]2Cc2ccc(O)cc2)cc1Br`, the Potency is reported as inconclusive: 39.8 µM [inhibitor, single point]. In the case of `Cc1ccc(NC(=O)c2ncn(CC(=O)N[C@H](C)c3cccc4ccccc34)n2)cc1C`, the Potency is reported as inconclusive: 50.1 µM [inhibitor, partial curve, poor fit]. `Cc1noc(C)c1C(=O)NCCC1=CCCCC1` was tested, and the Potency was inconclusive: 100 µM [inhibitor, partial curve, poor fit]. With `CN(C(=S)NC(=O)c1ccc(Cl)cc1)C1CCCCC1` the Potency was inconclusive: 50.1 µM [inhibitor, partial curve]. `CCOc1ccc2nc(SC3CC(=O)N(c4ccccc4)C3=O)sc2c1` (centres undefined) was tested, and the Potency was inconclusive: 10 µM [inhibitor, full curve, poor fit]. `O=C(O)C(Oc1ccc2c3c(c(=O)oc2c1)CCC3)c1ccccc1` (centres undefined) was tested, and the Potency was inconclusive: 35.5 µM [inhibitor, single point]. In the case of `C#CCOCCOCCOCCNc1nc(N2CCN(C(=O)[C@H]([C@@H](C)O)n3cc(CCCCN)nn3)CC2)nc(N2CCN(C(=O)[C@H]([C@@H](C)CC)n3cc(CCCCN)nn3)CC2)n1`, the Potency is reported as inconclusive: 39.8 µM [inhibitor, single point]. For `CCN(CC(=O)NCc1cccs1)C(=O)c1ccc(NS(=O)(=O)c2ccc(C(C)=O)cc2)cc1`, the Potency was inconclusive: 89.1 µM [inhibitor, partial curve, poor fit]. For `COc1ccc(C(=O)/C=C/c2ccccc2)c(O)c1`, the Potency was inconclusive: 8.91 µM [inhibitor, partial curve]. In the case of `O=C(COc1ncnc2sccc12)N1CCN(C(=O)c2ccco2)CC1`, the Potency is reported as active: 20 µM. `Cc1cccc(Cn2c(=O)n(-c3ccc(CC(=O)NCc4ccco4)cc3)c(=O)c3sccc32)c1` was tested, and the Potency was inconclusive: 89.1 µM [inhibitor, partial curve, poor fit].
